Data source: PubChem BioAssay AID1224826 (NIAID, 2016)
In all, the deposit lists about 17,000 reagents; this is a part drawn at random. About 1,110 of all reagents (6.6%) were called active. 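Active means lowered or raised reporter signal; replicate intensities are raw and not normalised per plate.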 Not all columns of the deposit are shown.

Screen: 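Genes that change LPS-induced Tnf promoter activity in mouse macrophages when knocked down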 (primary screen)
Cells: RAW264.7 G9 macrophages from mouse bearing reporters for p65 (GFP) and the Tnf promoter (mCherry)
Reagents: siRNA pool against mouse genes, 100 nM
Duration: 16 h of LPS stimulation, after 2 days of siRNA transfection
Challenge: bacterial lipopolysaccharide (Salmonella minnesota R595), 10 ng/ml
Read-out: 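Imaged Tnf reporter mCherry in nuclei, minus background, normalised per plate to the median and expressed as robust z-scores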
Direction: Tnf reporter robust z-score: higher = stronger Tnf promoter reporter signal after LPS; Tnf reporter intensity: higher = stronger Tnf promoter reporter signal
Hit rule: 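Called active when robust z-score is at most -1.3, matching the median of the Tlr4 knock-down control, or over 3; control wells and wells with under 50 cells never active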
Meaning of the calls: active = Tnf reporter clearly lowered or raised; inactive = no clear change in Tnf reporter

| target | Tnf reporter robust z-score | fewer than 50 cells in well | Tnf reporter intensity, replicate 1 | activity call |
| --- | --- | --- | --- | --- |
| Slmap (sarcolemma associated protein) | – | fewer than 50 cells per well; well left out of calls | 104 | inactive |
| Tmem109 (transmembrane protein 109) | 2.57 | enough cells in well | 348 | inactive |
| Mob2 (MOB kinase activator 2) | – | fewer than 50 cells per well; well left out of calls | 143 | inactive |
| Or4c102 (olfactory receptor family 4 subfamily C member 102) | -0.19 | enough cells in well | 187 | inactive |
| Pcx (pyruvate carboxylase) | 0.21 | enough cells in well | 273 | inactive |
| Nr5a1 (nuclear receptor subfamily 5, group A, member 1) | 0.12 | enough cells in well | 259 | inactive |
| Pick1 (protein interacting with C kinase 1) | 0.06 | enough cells in well | 191 | inactive |
| Tcl1b5 (T cell leukemia/lymphoma 1B, 5) | -1.26 | enough cells in well | 69.6 | inactive |
| Wdr18 (WD repeat domain 18) | -0.04 | enough cells in well | 126 | inactive |
| Gpr82 (G protein-coupled receptor 82) | 0.56 | enough cells in well | 232 | inactive |
| Tssk1 (testis-specific serine kinase 1) | – | fewer than 50 cells per well; well left out of calls | 223 | inactive |
| Mrps25 (mitochondrial ribosomal protein S25) | -0.56 | enough cells in well | 139 | inactive |
| Ccni (cyclin I) | -1.2 | enough cells in well | 165 | inactive |
| Sfxn4 (sideroflexin 4) | – | fewer than 50 cells per well; well left out of calls | 66.4 | inactive |
| Gfer (growth factor, augmenter of liver regeneration) | -0.14 | enough cells in well | 244 | inactive |
| Bcl2l13 (BCL2 like 13) | -0.49 | enough cells in well | 110 | inactive |
| Ggcx (gamma-glutamyl carboxylase) | 0.31 | enough cells in well | 294 | inactive |
| Pcdh7 (protocadherin 7) | -0.74 | enough cells in well | 194 | inactive |
| Or4a75 (olfactory receptor family 4 subfamily A member 75) | 1.21 | enough cells in well | 268 | inactive |
| Spink8 (serine peptidase inhibitor, Kazal type 8) | 0.12 | enough cells in well | 185 | inactive |
| Tcl1b1 (T cell leukemia/lymphoma 1B, 1) | – | fewer than 50 cells per well; well left out of calls | 53.2 | inactive |
| Stat5b (signal transducer and activator of transcription 5B) | 0.81 | enough cells in well | 386 | inactive |
| Spcs2 (signal peptidase complex subunit 2 homolog (S. cerevisiae)) | 0.23 | enough cells in well | 185 | inactive |
| Vmn2r-ps105 (vomeronasal 2, receptor, pseudogene 105) | -1.37 | enough cells in well | 82.1 | active |

Just “fewer than 50 cells in well” (4 entries from above):
Gpr82 (G protein-coupled receptor 82): enough cells in well
Tssk1 (testis-specific serine kinase 1): fewer than 50 cells per well; well left out of calls
Mrps25 (mitochondrial ribosomal protein S25): enough cells in well
Ccni (cyclin I): enough cells in well
